Source: PubChem BioAssay AID463205 (Broad Institute, 2010)
The whole screen tested about 2,400 compounds, of which about 20 (0.8%) were called active.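 Rule for the calls: active = AC50 no more than ten times the highest tested concentration, or full inhibition at every dose giving a flat fit (cut at about 30 µM in these data); inconclusive = flat fit with activity between 30% and 70%, or poor-quality invalid fit; inactive = AC50 more than ten times the top tested dose.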 Some of the results follow.

Assay: inhibitors of ADP-Glo detection reagents, dose response, artefact control for GSK-3a inhibitor project, biochemical, luminescence, cell-free, homogeneous (AID 463205);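 note: kinase-free counter-screen against the ADP-Glo detection reagents only; potency is for inhibitors that reduce the luminescence signal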
Details: 5 uM ADP

AC50, inactive:
CC(C)=CC(=O)NCc1c(Cl)cccc1-n1cccc1 > 30 µM
Nc1nonc1-n1nnc(C(=O)N/N=C/c2cccnc2)c1-c1cccs1 > 30 µM
COc1ccc(NC(=O)Nc2ccc(Br)c(C)c2)cc1 > 30 µM
O=C(Nc1ccccc1-c1nnc(SCc2ccccc2)o1)c1ccccc1 > 30 µM
Cc1ccnc(NC(=O)CCC(=O)N(CC(=O)NCc2ccc(F)cc2)Cc2ccccc2)c1 > 30 µM
O=C(COC(=O)C1CCC1)c1c[nH]c2ccccc12 > 30 µM
O=C(COC(=O)c1ccccc1)Nc1ncc([N+](=O)[O-])s1 > 30 µM
CCN1CCN(Cc2c(O)ccc3c2O/C(=C\c2ccccc2)C3=O)CC1 > 30 µM
Nc1nc(NCCO)nc(N2CCCCCC2)c1[N+](=O)[O-] > 30 µM
Fc1cccc(/C=N/Nc2ccc3ccccc3n2)c1 > 30 µM
CC(=O)Nc1ccc(Oc2ccc3c(c2)C(=O)NC3=O)cc1 > 30 µM
O=C(O)c1ccc(Cl)c(NC(=O)C2CCCN2S(=O)(=O)c2cccc3nsnc23)c1 (centres undefined) > 30 µM
OCC1OC(n2cnc3c(NCCc4ccccc4)ncnc32)C(O)C1O (centres undefined) > 30 µM
Cn1nnnc1SCC(=O)Nc1nn(-c2ccccc2)nc1C(N)=O > 30 µM
CCn1c(SCC(=O)Nc2ccc(C)cc2)nnc1-c1ccc(O)cc1 > 30 µM
COc1ccc(CCNC(=O)CSc2nc3[nH]ncc3c(=O)n2-c2ccccc2OC)cc1OC > 30 µM
COc1ccc(N=c2oc3c(OC)cccc3cc2C(=O)NCc2ccco2)c(OC)c1 > 30 µM
Cn1cc(C(=O)c2cccc(Cl)c2)cc1/C=N\O > 30 µM
Clc1ccc(C2=Nn3c(nnc3-c3cccs3)SC2)cc1 > 30 µM
O=C(CSc1nnc(SCc2ccc(Cl)cc2)s1)N/N=C/c1ccccc1C(=O)O > 30 µM
c1nc(N2CCCCCC2)c2[nH]cnc2n1 > 30 µM
Cc1cc(C)nc(NS(=O)(=O)c2cccs2)c1 > 30 µM
CC1(C)CC(=O)C(C(C2=C(O)CC(C)(C)CC2=O)c2ccco2)C(=O)C1 (centres undefined) > 30 µM
COc1ccc(CCNc2nc(C)cc(C)n2)cc1OC > 30 µM
COc1ccc(/C=N\NC(=O)c2ccccc2Br)cc1COc1ccccc1 > 30 µM
COc1ccc(CC(=O)Oc2cc(C)ccc2C)cc1 > 30 µM
CSc1ccc(-c2cc(=O)c3ccccc3o2)cc1 > 30 µM
COc1cccc(/C=N/NC(=O)c2nnn(-c3nonc3N)c2-c2cccs2)c1 > 30 µM
NC(=O)c1ccc(NCCCN2CCOCC2)c([N+](=O)[O-])c1 > 30 µM
O=C(c1ccc2c3n(nc2c1)-c1ccc(Cl)cc1CO3)N1CCOCC1 > 30 µM
CC(C)NC(=O)Nc1cccc(Cl)c1 > 30 µM
CCOC(=O)C1CCN(c2c(C(=O)c3ccccc3)cnc3ccc(CC)cc23)CC1 > 30 µM
COc1ccc(Nc2nc(N)nc(COc3ccc(OC)cc3)n2)cc1 > 30 µM
Oc1ccc(-c2nc3ncccn3c2Nc2ccc3c(c2)OCCO3)cc1 > 30 µM
COc1ccc(-n2c(SCC(N)=O)nnc2-c2ccco2)cc1 > 30 µM
N#Cc1cc(Cl)c(NCC2CCCO2)cc1C#N (centres undefined) > 30 µM
Cn1cnc(C(=O)NC2CCN(C(=O)OC(C)(C)C)CC2)c1C(=O)NC1CCN(C(=O)OC(C)(C)C)CC1 > 30 µM
COc1ccc(NC(=O)CN(C)S(=O)(=O)c2cnc[nH]2)cc1 > 30 µM
CC(/C=N/NC(=O)c1nnn(-c2nonc2N)c1C(C)C)=C\c1ccccc1 > 30 µM
O=c1[nH]c2c(s1)C(c1ccccc1)C1C3CCC(C3)C1S2 (centres undefined) > 30 µM
N#C/C(=N\Nc1ccc(Cl)cc1)C(N)=S > 30 µM
CCCCNc1nc(N)nc(-c2cc(Cl)ccc2O)n1 > 30 µM
COc1c2ccccc2c(OC)c2ccccc12 > 30 µM
CCN(CC)Cc1c(C(=O)N/N=C(\C)c2ccncc2)nnn1-c1nonc1N > 30 µM
COc1ccc2c3c(cccc13)C(=O)CC2 > 30 µM
COc1cccc(NC(=O)CN(C)C(=O)C23CC4CC(CC(Cl)(C4)C2)C3)c1 > 30 µM
COc1ccc(C(=O)NC(=O)CSc2nnc(-c3ccco3)n2-c2ccccc2)cc1 > 30 µM
COc1ccc(COC(=O)C2=C(C)NC(=O)NC2c2cccc(OC)c2OC)cc1 (centres undefined) > 30 µM
COc1cc(/C=N/Nc2nc(=O)[nH]nc2C)cc([N+](=O)[O-])c1O > 30 µM
S=C(NCc1ccc2c(c1)OCO2)NCc1ccc2c(c1)OCO2 > 30 µM
COc1ccc(NC(=O)c2ccc(NCC3CCCO3)c([N+](=O)[O-])c2)cc1 (centres undefined) > 30 µM
Cc1nnc(SCC(=O)N(C(C)C)C(C)C)nc1C > 30 µM
O=[N+]([O-])c1ccc(O)c(CN2CCCCCC2)c1 > 30 µM
COc1ccc(Cl)cc1Nc1nc(N)c2ccccc2n1 > 30 µM
O=C(Nc1nc2c(s1)CCCC2)c1ccc(Br)o1 > 30 µM
Nc1nc(NCCc2ccccc2)nc(NCc2ccccc2)c1[N+](=O)[O-] > 30 µM
Cc1onc(-c2ccccc2Cl)c1C(=O)Nc1cccc(-c2cn3cccnc3n2)c1 > 30 µM
CC1(C)CC(=O)C(C(C2=C(O)CC(C)(C)CC2=O)c2cccc(O)c2)C(=O)C1 (centres undefined) > 30 µM
O=c1ccc2ccccc2o1 > 30 µM
CCCC(=O)NC(=S)Nc1cccc(C(C)=O)c1 > 30 µM
Cc1csc(NC(=O)C2CC(=O)N(c3ccc4c(c3)OCCO4)C2)n1 (centres undefined) > 30 µM
COC(=O)[C@@H](NC(=O)NCc1ccc(F)cc1)C(C)C > 30 µM
Cc1onc(-c2ccccc2)c1C(=O)NCCN1CCOCC1 > 30 µM
CCOC(=O)c1nc2sc3c(c2c(=O)[nH]1)CCC(C)C3 (centres undefined) > 30 µM
CCCCn1c(SCC(=O)Nc2sc3c(c2C(N)=O)CCC3)nnc1-c1ccccc1 > 30 µM
CN1CCN(c2nc(NCc3ccco3)nc(N)c2[N+](=O)[O-])CC1 > 30 µM
Nc1nc(NCc2ccccc2)nc(NCc2ccccc2)c1[N+](=O)[O-] > 30 µM
CC(C)N=C(NC#N)SCc1ccc(Br)cc1 > 30 µM
CCOC(=O)c1[nH]c2c(c1-c1ccccc1)C(=O)CC(c1ccc(OCC)cc1)C2 (centres undefined) > 30 µM
O=c1c2ccccc2[nH]c2ccc(O)cc12 > 30 µM
CCOC(=O)C1=C(CC)OC(N)=C(C#N)C1c1ccc(NC(C)=O)cc1 (centres undefined) > 30 µM
COC(=O)CCCNc1ncccc1[N+](=O)[O-] > 30 µM
Cc1[nH]nc2c1-c1nc3ccccc3nc1C(C)(C)C2 > 30 µM
Cc1cccc(OCC(=O)Nc2ccc3c(c2)C(=O)NC3=O)c1 > 30 µM
Nc1nc(NCCOCCO)nc(N2CCCCCC2)c1[N+](=O)[O-] > 30 µM
Fc1cccc(/C=N/Nc2ccccn2)c1 > 30 µM
CCOC(=O)C1CCCN(c2c(C(=O)c3ccccc3)cnc3ccccc23)C1 (centres undefined) > 30 µM
CCNc1ccccc(C(=O)/C=C/c2ccc3c(c2)OCO3)c1=O > 30 µM
Clc1cccc(Nc2ncnc3c2cnn3-c2ccccc2)c1 > 30 µM
CCc1ccc(/C=c2\s/c(=C\C(=O)C(C)(C)C)[nH]c2=O)cc1 > 30 µM
CCOC(=O)c1c(-c2cccc([N+](=O)[O-])c2)csc1N > 30 µM
Cc1cc(C)c(NC(=O)C2CCCN2CCOC(=O)c2cccc([N+](=O)[O-])c2)c(C)c1 (centres undefined) > 30 µM
CCOc1cccc(-c2c(C(=O)N/N=C(\C)c3ccccn3)nnn2-c2nonc2N)c1 > 30 µM
Fc1ccc(/C=N/Nc2nccnc2Cl)cc1 > 30 µM
Cc1nc(Nc2ccc(C(=O)O)cc2)nc(Nc2ccc(C(=O)O)cc2)c1[N+](=O)[O-] > 30 µM
CC(C)(C)NC(=O)/C(=C\c1ccccc1F)NC(=O)c1ccc([N+](=O)[O-])cc1 > 30 µM
COCCNC(=O)Cn1cnc([N+](=O)[O-])n1 > 30 µM
O=C(NC1C=CS(=O)(=O)C1)c1sc2ccccc2c1Cl (centres undefined) > 30 µM
O=[N+]([O-])c1cccc(-c2ccn[nH]2)c1 > 30 µM
Cc1nc2ccc3[nH]snc3c2n1 > 30 µM
NNC(=O)/C(=N/Nc1ccccc1)S(=O)(=O)c1ccc(Cl)cc1 > 30 µM
CCCOc1ccc(-c2c(C(=O)N/N=C(\C)c3ccncc3)nnn2-c2nonc2N)cc1 > 30 µM
CCOC(=O)c1cnn(Cc2ccccc2Cl)c1N > 30 µM
Cc1ccc(-c2nnc(N3CCN(C(=O)COc4ccccc4)CC3)c3ccccc23)cc1 > 30 µM

Taken from the entries so far (6 entries):
AC50, inactive:
COc1ccc(NC(=O)Nc2ccc(Br)c(C)c2)cc1 > 30 µM
O=C(Nc1ccccc1-c1nnc(SCc2ccccc2)o1)c1ccccc1 > 30 µM
Cc1ccnc(NC(=O)CCC(=O)N(CC(=O)NCc2ccc(F)cc2)Cc2ccccc2)c1 > 30 µM
O=C(COC(=O)C1CCC1)c1c[nH]c2ccccc12 > 30 µM
O=C(COC(=O)c1ccccc1)Nc1ncc([N+](=O)[O-])s1 > 30 µM
CCN1CCN(Cc2c(O)ccc3c2O/C(=C\c2ccccc2)C3=O)CC1 > 30 µM
